Test system: α‐Syn
Experiment: circular dichroism spectroscopy of the LL-III/α-Syn mixture
Format: biochemical, human
Conditions: 300 μM LL-III, 30 μM α-Syn, 20 mM sodium acetate, pH 5.0, 25 °C

NH2-VNWKKIL GKIIKVVK -CONH2 [LL‐III]
conformation of the LL-III/α-Syn mixture after 10 days (CD) (10 days): showed only features of a random conformation | conformational change on mixing LL-III and α-Syn (CD) (day 0): no conformational changes were observed
